Data: PubChem BioAssay AID602313 (National Center for Advancing Translational Sciences (NCATS), 2012)
About 760 (0.19%) of roughly 390,000 compounds were called active. The shares of active, inactive and inconclusive entries below differ from those in the screen. The call rests on the fitted dose curve; in most records, active means well fitted inhibition curve with a large enough effect; inconclusive means small, poorly fitted or top-dose-only effect; inactive means flat fitted curve, though single readings scatter. Potencies of inconclusive entries are doubtful fits and often do not repeat.

Assay: qHTS for Inhibitors of Vif-A3F Interactions: qHTS; further: nearly all actives have a fitted effect of over 65% in size; on activity, negative = active: % of control where 0% means no effect
Details: HeLa A3F-eYFP + Vif (tagged APOBEC3F with the HIV-1 protein that degrades it), YFP fluorescence increase; series mostly up to 46.1 µM; activity, negative = active: at the top concentration
In short: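 HeLa cells stably expressing Vif plus C-terminally eYFP-tagged A3F were seeded, incubated overnight at 37 deg C, dosed with compound, incubated overnight again at 37 deg C. Yellow fluorescence (Ex 488/Em 500-530) reported blocked Vif-mediated A3F-eYFP degradation.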
Potency means the concentration at half of the fitted maximal effect.

Row | Structure (SMILES) | Potency | activity, negative = active
1 | Cn1cnc2c(cnn2C)c1=N | inconclusive: 35.5 µM [inhibitor, single point] | –
2 | COc1cc(/C=C2\CCC(C)C3=C(c4cc(OC)c(OC)c(OC)c4)C(C#N)=C(N)OC32)cc(OC)c1OC (configuration not stated) | inconclusive: 25.1 µM [inhibitor, single point] | –
3 | Clc1ccc2nc(-c3ccc(Br)o3)c(Nc3ccc4c(c3)OCCO4)n2c1 | inconclusive: 7.08 µM [inhibitor, partial curve, poor fit] | –
4 | Cc1nc(SCC(=O)c2cc3ccccc3oc2=O)c(C#N)c(-c2cccs2)c1C(=O)Nc1ccccc1 | – | inactive: -15.4%
5 | COc1ccc2c(C)cc(SCC(=O)Nc3cccnc3Cl)nc2c1 | inconclusive: 35.5 µM [inhibitor, single point] | –
6 | CC(C)CNS(=O)(=O)c1ccc(C(=O)Nc2ccc3c(c2)OCCO3)cc1 | – | inactive: -0.983%
7 | COc1cc2[nH]c(=S)n(C3CC3)c(=O)c2cc1OC | inconclusive: 35.5 µM [inhibitor, single point] | –
8 | O=C(NCC1CCCO1)C(=O)NCC(c1ccco1)N1CCN(c2ccccc2)CC1 (configuration not stated) | inconclusive: 5.62 µM [inhibitor, single point] | –
9 | CCOc1ccc2c(c1)sc(N)[n+]2Cc1cc(C)cc2cccnc12 | inconclusive: 25.1 µM [inhibitor, single point] | –
10 | O=C(c1ccco1)N1CCN(CCCCOc2cccc3ccccc23)CC1 | – | inactive: -6.91%
11 | O=C(/C=C/c1ccc(N2CCOCC2)cc1)c1ccccc1 | inconclusive: 20 µM [inhibitor, partial curve, poor fit] | –
12 | Cc1cc(/C=C\c2ccc3cc(N(C)C)ccc3[n+]2C)c(C)n1-c1ccccc1 | active: 3.16 µM | –
13 | Cc1ccc(S(=O)(=O)/N=C2/NC(=O)/C(=C/c3cc([N+](=O)[O-])ccc3O)S2)cc1 | inconclusive: 22.4 µM [inhibitor, partial curve, poor fit] | –
14 | CC1CN(C(=S)NC(=O)c2ccc(Cl)cc2)CC(C)O1 (configuration not stated) | inconclusive: 35.5 µM [inhibitor, single point] | –
15 | Cc1ccc([N+](=O)[O-])cc1NC(=O)C(C)Sc1nnc(C)n1CC1CCCO1 (configuration not stated) | inconclusive: 35.5 µM [inhibitor, partial curve, poor fit] | –
16 | COc1ccc(CNC(=O)C[C@H]2C[C@H](C(=O)N3CCOCC3)[C@@]3(CCC4CCCC4)c4[nH]c5cc(-c6ccco6)ccc5c4CCN3C2=O)cc1OC | – | inactive: 5.55%
17 | COCC1CCN(Cc2cn(-c3ccccc3F)nc2-c2cc(C)sc2C)CC1 | inconclusive: 2.82 µM [inhibitor, partial curve, poor fit] | –
18 | CC1(C)CC(=NNC(=O)c2n[nH]c3c2CCC3)CC(C)(C)N1 | inconclusive: 35.5 µM [inhibitor, single point] | –
19 | Cc1cc(O)cc2c1C(=O)/C(=C/c1ccco1)O2 | inconclusive: 20 µM [inhibitor, partial curve, poor fit] | –
20 | c1cn(CCCNC2CCCCCCC2)cn1 | inconclusive: 1 µM [inhibitor, full curve, poor fit] | –
21 | CCCN1C(=O)S/C(=C/c2ccc(N3CCOCC3)o2)C1=O | inconclusive: 4.47 µM [inhibitor, single point] | –
22 | O=C(NNC1=Nc2cccc3cccc1c23)c1ccccc1Br | inconclusive: 35.5 µM [inhibitor, single point] | –
23 | O=C(NC(=S)Nc1ccccc1N1CCCC1)c1cccc(F)c1 | inconclusive: 35.5 µM [inhibitor, single point] | –

Row | Structure (SMILES) | Potency | activity, negative = active
24 | CCN(CC)c1ccc(/C=C(\C#N)C(=O)NCc2ccccc2)cc1 | inconclusive: 25.1 µM [inhibitor, single point] | –
25 | CC(=O)n1cc([C@H]2C=C(C(=O)Nc3ccccc3)O[C@@H](OCc3ccc(CO)cc3)C2)c2ccccc21 | inconclusive: 35.5 µM [inhibitor, single point] | –
26 | Cc1cc(C)c(C#N)c(N2CCN(c3ccc(F)cc3)CC2)n1 | inconclusive: 35.5 µM [inhibitor, single point] | –
27 | Cc1cc(C)cc(NC(=O)Cn2nnc(C(=O)Nc3cc(C)cc(C)c3)c2N)c1 | inconclusive: 35.5 µM [inhibitor, single point] | –
28 | CCOC(=O)Cc1csc(NC(=O)Cc2ccccc2[N+](=O)[O-])n1 | inconclusive: 35.5 µM [inhibitor, single point] | –
29 | CCCCn1c(/C=C/c2ccco2)nc2ccccc21 | inconclusive: 35.5 µM [inhibitor, single point] | –
30 | COc1cc(OC)c(-c2c3cc(O)c(=O)cc-3oc3cc(O)c(O)cc23)cc1OC | inconclusive: 3.16 µM [inhibitor, partial curve, poor fit] | –
31 | Cn1c(/C=C/c2ccccc2[N+](=O)[O-])nc2ccccc2c1=O | inconclusive: 22.4 µM [inhibitor, single point] | –
32 | COc1cc(C2c3c(-c4cc(Cl)c(C)cc4O)n[nH]c3C(=O)N2Cc2cccnc2)ccc1O (configuration not stated) | – | inactive: 1.21%
33 | O=C(C[n+]1cccc2ccccc21)c1ccc([N+](=O)[O-])cc1 | inconclusive: 28.2 µM [inhibitor, single point] | –
34 | CCn1c(/C=C/N(C(C)=O)c2ccccc2)[n+](CCCS(=O)(=O)[O-])c2cc(Cl)c(Cl)cc21 | – | inactive: 0.582%
35 | CC1(c2ccc3c(c2)OCCO3)NC(=O)N(CC(=O)Nc2ccccc2F)C1=O (configuration not stated) | inconclusive: 3.16 µM [inhibitor, single point] | –
36 | Cn1nnnc1N=N/C(=N/Nc1ccccc1)c1ccccc1 | inconclusive: 14.1 µM [inhibitor, single point] | –
37 | O=C(NCc1cccc(Br)c1)c1cccn1-c1nnc(N2CCCCC2)s1 | – | inactive: 3.47%
38 | O=C(/C=C/c1ccc(OCc2ccccc2)c(OCc2ccccc2)c1)c1cccnc1 | – | inactive: -6.23%
39 | CC1CCCCN1C(=O)CSc1nc2ccccc2nc1Cc1ccccc1 (configuration not stated) | – | inactive: -13.1%
40 | O=C(Nc1cccc(NC(=O)c2cccs2)c1)c1ccc([N+](=O)[O-])o1 | inconclusive: 3.16 µM [inhibitor, partial curve, poor fit] | –
41 | COc1ccc(N=Nc2c(-c3ccc(OC)cc3)[nH]oc2=O)cc1 | inconclusive: 17.8 µM [inhibitor, single point] | –
42 | CC(C)c1ccccc1NS(=O)(=O)N(C)C | inconclusive: 35.5 µM [inhibitor, single point] | –
43 | O=C(CSc1ccc(-c2ccco2)nn1)c1ccc(F)cc1 | – | inactive: 3.31%
44 | CS(=O)(=O)Oc1ccc2c(c1)O/C(=C\c1cccc([N+](=O)[O-])c1)C2=O | – | inactive: -6.4%
45 | COC(=O)c1ccc(NCc2cc(O)ccc2O)cc1 | inconclusive: 17.8 µM [inhibitor, single point] | –
46 | COc1ccc(NC(=O)CN(C)S(=O)(=O)c2ccc(Cl)cc2)c([N+](=O)[O-])c1 | inconclusive: 25.1 µM [inhibitor, partial curve, poor fit] | –

Row | Structure (SMILES) | Potency | activity, negative = active
47 | CCc1ccc(NC(=O)CC2C(=O)N(c3cccc(C)c3)C(=O)N2Cc2cccc(OC)c2)cc1 (configuration not stated) | – | inactive: 9.6%
48 | O=[N+]([O-])c1ccccc1CCc1ccccc1[N+](=O)[O-] | inconclusive: 10 µM [inhibitor, partial curve, poor fit] | –
49 | O=C(C[n+]1cc(-c2ccc(Cl)cc2)n2c1CCC2)Nc1nc(-c2ccc(F)cc2)cs1 | inconclusive: 35.5 µM [inhibitor, single point] | –
50 | OCC(CO)(CO)N=Cc1c(O)ccc2ccccc12 | – | inactive: -4.58%
51 | Cc1nn(-c2ccccc2)c(C)c1S(=O)(=O)O | inconclusive: 0.631 µM [inhibitor, full curve, poor fit] | –
52 | Cc1nc2cc(-c3ccc(Cl)cc3)nn2c(NCCN(C)C)c1C | inconclusive: 12.6 µM [inhibitor, single point] | –
53 | CCN(CC)c1ccc(NC(=O)COc2ccccc2C)cc1S(=O)(=O)Nc1ccccc1OC | – | inactive: 6.36%
54 | Cc1ccc(C)c(S(=O)(=O)NCCCc2ccccc2)c1 | – | inactive: -18.3%
55 | COCC(C)OC(=O)/C(C#N)=C\c1coc2ccc(C)cc2c1=O (configuration not stated) | inconclusive: 25.1 µM [inhibitor, single point] | –
56 | CC1CCCC(C)N1CC(O)COCc1ccccc1 (configuration not stated) | inconclusive: 2.82 µM [inhibitor, partial curve, poor fit] | –
57 | CC1(C(=O)Nc2cccc(C(F)(F)F)c2)Cc2ccccc2C(=O)O1 (configuration not stated) | – | inactive: 2.88%
58 | CC(C)CN(C(=O)COC(=O)c1ccc2ccccc2c1)c1c(N)n(Cc2ccccc2)c(=O)[nH]c1=O | inconclusive: 35.5 µM [inhibitor, single point] | –
59 | CCCN(CCC)CCCNC(=O)c1cc2c(-c3ccc(Cl)cc3)nn(C)c2s1 | inconclusive: 15.8 µM [inhibitor, single point] | –
60 | CCCCC(CCC(=O)Nc1cc([N+](=O)[O-])ccc1O)C(=O)O (configuration not stated) | inconclusive: 0.562 µM [inhibitor, full curve, poor fit] | –
61 | COc1ccc(NC(=S)Nn2cnnc2)cc1OC | – | inactive: -24.1%
62 | Cc1cc(F)ccc1NC(=O)CCS(=O)(=O)c1cccc2nsnc12 | – | inactive: -14.4%
63 | O=C(CSc1cccc[n+]1[O-])N1CCCCCC1 | – | inactive: 0.388%
64 | O=C(Cn1nnc(-c2ccccc2)n1)N/N=C/c1cc([N+](=O)[O-])ccc1O | inconclusive: 35.5 µM [inhibitor, single point] | –
65 | Cc1ccccc1NC(=S)NC(=O)Cc1ccc(Cl)cc1 | inconclusive: 20 µM [inhibitor, single point] | –
66 | O=C(Nc1nc2ccccc2s1)c1cc2c(s1)-c1ccccc1OC2 | inconclusive: 12.6 µM [inhibitor, partial curve, poor fit] | –
67 | CC(C)CC(=O)NC(=S)Nc1ccc(N2CCCC2)c(Cl)c1 | inconclusive: 25.1 µM [inhibitor, single point] | –

Quoted from the listing:
Value of `COCC(C)OC(=O)/C(C#N)=C\c1coc2ccc(C)cc2c1=O` (configuration not stated) under Potency: inconclusive: 25.1 µM [inhibitor, single point]
Value of `Cc1nc2cc(-c3ccc(Cl)cc3)nn2c(NCCN(C)C)c1C` under Potency: inconclusive: 12.6 µM [inhibitor, single point]
Value of `O=C(C[n+]1cc(-c2ccc(Cl)cc2)n2c1CCC2)Nc1nc(-c2ccc(F)cc2)cs1` under Potency: inconclusive: 35.5 µM [inhibitor, single point]
Value of `O=[N+]([O-])c1ccccc1CCc1ccccc1[N+](=O)[O-]` under Potency: inconclusive: 10 µM [inhibitor, partial curve, poor fit]
